Tested on: broiler chicks
Test: Growth-stimulation test on chicks
Type: in vivo, broiler chicks (arbor acre)
Conditions: 20 ppm in feed for 14 days
Excerpt: The growth-stimulating activities of PA-45052-A, PA-45052-B and PA-45052-E on broiler chicks (arbor acre, 8 days old) were investigated by using the known antibiotic thiopeptin as a referential agent. Chicks were fed with a feed mush (crude protein (CP) concentration 18%, each agent's concentration 20 ppm, not supplemented with other antibiotics) for 14 days in the battery brooders. The method of this experiment was as follows. After chicks were fed by floor pen with a feed (CP concentration 23%) from 0 to 8 days, they were divided into 5 groups (24 chicks a group, 12 male and 12 female) in such a way that the average weights of the groups are equal. To each group was administered PA-45052-A (20 ppm), PA-45052-B (20 ppm), PA-45052-E (20 ppm), thiopeptin (20 ppm) or only a feed (CP 18%) for 14 days. Each group was fed in cages (435×600×410 mm, each cage has 6-7 chicks) at 26°±2° C. for 14 days (up to 22 days old). Effectiveness was estimated from the increase of weight and the feed efficiency.

Compound	Feed efficiency B (M = g), average intake of feed [g]
CNC(CC(C)C)C(=O)NC1C(=O)NC(CC(N)=O)C(=O)NC2C(=O)NC3C(=O)NC(C(=O)NC(C(=O)O)c4cc(O)cc(O)c4-c4cc3ccc4O)C(OC3CC(C)(N)C(O)C(C)O3)c3ccc(c(Cl)c3)Oc3cc2cc(c3OC2OC(CO)C(O)C(O)C2OC2CC(C)(N)C(O)C(C)O2)Oc2ccc(cc2Cl)C1O (stereo not drawn) [PA-45052-A]	719.1
CNC(CC(C)C)C(=O)NC1C(=O)NC(CC(N)=O)C(=O)NC2C(=O)NC3C(=O)NC(C(=O)NC(C(=O)O)c4cc(O)cc(O)c4-c4cc3ccc4O)C(OC3CC(C)(N)C(O)C(C)O3)c3ccc(c(Cl)c3)Oc3cc2cc(c3OC2OC(CO)C(O)C(O)C2O)Oc2ccc(cc2Cl)C1O (stereo not drawn) [PA-45052-B]	702.1
thiopeptin [reference compound]	697.1

From US5071749A, “Glycopetide antibiotic PA-45052-B” (Shionogi & Co., Ltd., priority 1987, dated 1991)
